Values from PubChem BioAssay AID743121 (NCATS, 2013).
The whole screen tested about 26,000 reagents; shown is a part drawn at random. 167 of them (0.63%) were called active. 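Calls are per gene from RSA p-values that are not deposited; an individual active-marked siRNA can sensitise only weakly.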 The numbers tell different reagents against one gene apart. Further read-outs or replicates are left out here.

Assay: 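Knock-downs that sensitise breast cancer cells to camptothecin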 (primary screen)
Cells: MDA-MB-231 cells, a human breast cancer line
Reagent: single siRNA against human genes, 20 nM siRNA (0.8 pmol per well)
Duration: 120 h (drug added 48 h after transfection, read 72 h later)
Conditions: camptothecin 20 nM (about EC30) for 72 h; vehicle 0.1% DMSO in parallel plates
Measured: 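CellTiter-Glo ATP signal, scaled to control siRNA as percent viability; sensitisation given as log2 of untreated divided by camptothecin-treated viability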
Reading the numbers: log2 vehicle/camptothecin viability: higher = stronger sensitisation to camptothecin
Call rule: 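Active genes have an RSA gene-level p-value below 0.001, computed from the ratios of their separate siRNAs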

For ADAMTS10 #1, what does the deposit list?
log2 vehicle/camptothecin viability: -0.488; Call: inactive

For ADAMTS10 #2, how do the results read?
log2 vehicle/camptothecin viability: -0.669; Call: inactive

How did the screen score ADAMTS10 #3?
log2 vehicle/camptothecin viability: -0.19; Call: inactive

With ADAMTS10 #4, what was measured?
log2 vehicle/camptothecin viability: -0.186; Call: inactive

What is on record for CD55 #1?
log2 vehicle/camptothecin viability: -0.265; Call: inactive

For CD55 #2, what does the deposit list?
log2 vehicle/camptothecin viability: 0.0624; Call: inactive

What did the screen give for CD55 #3?
log2 vehicle/camptothecin viability: -0.233; Call: inactive

With ETFBKMT #1, how do the results read?
log2 vehicle/camptothecin viability: 0.105; Call: inactive

For ETFBKMT #2, what was measured?
log2 vehicle/camptothecin viability: -0.112; Call: inactive

Which result is listed for ETFBKMT #3?
log2 vehicle/camptothecin viability: 0.237; Call: inactive

For ETFBKMT #4, how do the results read?
log2 vehicle/camptothecin viability: -0.317; Call: inactive

Which result is listed for GLRA1 #1?
log2 vehicle/camptothecin viability: -0.17; Call: inactive

With GLRA1 #2, what was measured?
log2 vehicle/camptothecin viability: -0.325; Call: inactive

What did the screen give for GLRA1 #3?
log2 vehicle/camptothecin viability: -0.299; Call: inactive

What did the screen give for GLRA1 #4?
log2 vehicle/camptothecin viability: 0.0594; Call: inactive

What is on record for PDLIM7 #1?
log2 vehicle/camptothecin viability: -0.0601; Call: inactive

What did the screen give for PDLIM7 #2?
log2 vehicle/camptothecin viability: -0.0143; Call: inactive

With PDLIM7 #3, what does the deposit list?
log2 vehicle/camptothecin viability: 0.178; Call: inactive

For PDLIM7 #4, what does the deposit list?
log2 vehicle/camptothecin viability: -0.163; Call: inactive

What did the screen give for TIAM1 #1?
log2 vehicle/camptothecin viability: -0.849; Call: inactive

With TIAM1 #2, what was measured?
log2 vehicle/camptothecin viability: -0.158; Call: inactive

With TIAM1 #3, what was measured?
log2 vehicle/camptothecin viability: -0.261; Call: inactive

With TIAM1 #4, what does the deposit list?
log2 vehicle/camptothecin viability: -0.381; Call: inactive

For ACP2 #1, what was measured?
log2 vehicle/camptothecin viability: -0.0505; Call: inactive

For ACP2 #2, what does the deposit list?
log2 vehicle/camptothecin viability: -0.379; Call: inactive

With ACP2 #3, what was measured?
log2 vehicle/camptothecin viability: -0.434; Call: inactive

With ACP2 #4, what was measured?
log2 vehicle/camptothecin viability: -0.142; Call: inactive

How did the screen score CAMK2G #1?
log2 vehicle/camptothecin viability: 0.278; Call: inactive

Which result is listed for CAMK2G #2?
log2 vehicle/camptothecin viability: -0.189; Call: inactive

With CAMK2G #3, what does the deposit list?
log2 vehicle/camptothecin viability: -0.00811; Call: inactive

With CAMK2G #4, what does the deposit list?
log2 vehicle/camptothecin viability: 0.176; Call: inactive

For MND1 #1, what was measured?
log2 vehicle/camptothecin viability: -0.0118; Call: inactive

With MND1 #2, how do the results read?
log2 vehicle/camptothecin viability: -0.0745; Call: inactive

With MND1 #3, how do the results read?
log2 vehicle/camptothecin viability: -0.3; Call: inactive

What is on record for MND1 #4?
log2 vehicle/camptothecin viability: 0.0914; Call: inactive

Look-ups from the entries so far.
Entry of MND1 #4 in “log2 vehicle/camptothecin viability”: 0.0914
ETFBKMT #1, log2 vehicle/camptothecin viability → 0.105
